Results are given in words; binding and its absence hold for the method and conditions named. Some results given as binding are weak or reduced against the parent protein; the word gives no strength.
Assays:
[1] = target: T1, Bcr-Abl PH domain (residues 704-893) (UniProt P11274); assay: SEC; PH and monobody mixed 1:2 (PH:monobody) before injection; Superdex 75 16/600 for the full-length PH domain, Superdex 75 10/300 for PHΔ770-829; both purified
T1 sequence: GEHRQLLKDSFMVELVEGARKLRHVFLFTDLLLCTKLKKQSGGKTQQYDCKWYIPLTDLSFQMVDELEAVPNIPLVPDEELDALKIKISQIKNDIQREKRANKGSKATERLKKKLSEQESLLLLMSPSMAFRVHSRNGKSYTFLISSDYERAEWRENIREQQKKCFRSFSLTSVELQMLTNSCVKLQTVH

[2] = target: T2, Bcr-Abl PH domain with internal deletion (PHΔ770-829) (UniProt P11274); assay: as above
T2 sequence: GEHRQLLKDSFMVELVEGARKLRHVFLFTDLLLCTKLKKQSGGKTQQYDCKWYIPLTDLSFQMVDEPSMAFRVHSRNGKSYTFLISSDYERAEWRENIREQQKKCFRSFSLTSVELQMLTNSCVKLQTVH

[3] = target: T3, Bcr-Abl DH domain (residues 487-702); assay: NMR titration; [15N,1H]-TROSY of 15N-labelled DH domain alone or in complex with unlabelled monobody; chemical shift perturbations; both purified
T3 sequence: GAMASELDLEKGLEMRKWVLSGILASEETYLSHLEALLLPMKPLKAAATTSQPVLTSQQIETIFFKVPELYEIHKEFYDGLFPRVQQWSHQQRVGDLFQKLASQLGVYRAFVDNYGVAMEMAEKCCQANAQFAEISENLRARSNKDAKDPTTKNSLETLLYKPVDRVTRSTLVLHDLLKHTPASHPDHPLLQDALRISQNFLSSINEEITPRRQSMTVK

[4] = target: T3, Bcr-Abl DH domain (residues 487-702); assay: crystal structure; complex of domain and monobody, sitting drop at 291 K; 1.65 Å; both purified
[5] = target: Bcr-Abl DH-PH tandem domain (residues 487-893) (UniProt P11274); assay: SEC-MALS; analysis of sample homogeneity and oligomeric state of the purified constructs; 0.4 mL/min; both purified

| Binder | binding [1] | binding [2] | binding [3] | binding [4] | binding [5] |
| --- | --- | --- | --- | --- | --- |
| monobody Mb(Bcr-PH_2), purified (designed binder) VSSVPTKLEVVAATPTSLLISWDAPAVTVVFYVITYGETGGNSPVQEFTVPGSKSTATISGLKPGVDYTITVYAEYYGYTSSPISINYRT | binds | binds | – | – | – |
| monobody Mb(Bcr-PH_3), purified (designed binder) VSSVPTKLEVVAATPTSLLISWDAPAVTVVFYVITYGETGGNSPVQEFTVPGSKSTATISGLKPGVDYTITVYAEYYGYSGWQSPISINYRT | binds | binds | – | – | – |

Now from value to binder:

| binding [1] | binding [2] | binding [3] | binding [4] | binding [5] | Binder |
| --- | --- | --- | --- | --- | --- |
| – | – | binds | binds | – | monobody Mb(Bcr-DH_4), purified (designed binder) VSSVPTKLEVVAATPTSLLISWDAPAVTVDLYVITYGETGGNSPVQEFEVPGSKSTATISGLKPGVDYTITVYAGSYAYEYYWGPSPISINYRT |
| – | – | – | – | no binding | Bcr-Abl DH-PH tandem domain (residues 487-893) (domain or fragment, UniProt P11274 487-893) ASELDLEKGLEMRKWVLSGILASEETYLSHLEALLLPMKPLKAAATTSQPVLTSQQIETIFFKVPELYEIHKEFYDGLFPRVQQWSHQQRVGDLFQKLASQLGVYRAFVDNYGVAMEMAEKCCQANAQFAEISENLRARSNKDAKDPTTKNSLETLLYKPVDRVTRSTLVLHDLLKHTPASHPDHPLLQDALRISQNFLSSINEEITPRRQSMTVKKGEHRQLLKDSFMVELVEGARKLRHVFLFTDLLLCTKLKKQSGGKTQQYDCKWYIPLTDLSFQMVDELEAVPNIPLVPDEELDALKIKISQIKNDIQREKRANKGSKATERLKKKLSEQESLLLLMSPSMAFRVHSRNGKSYTFLISSDYERAEWRENIREQQKKCFRSFSLTSVELQMLTNSCVKLQTVH |
